From PMC5656757 come the findings set out here.

Protein sequences, listed by entry. Tags and fused reporters are not part of them.
UniProt P08013: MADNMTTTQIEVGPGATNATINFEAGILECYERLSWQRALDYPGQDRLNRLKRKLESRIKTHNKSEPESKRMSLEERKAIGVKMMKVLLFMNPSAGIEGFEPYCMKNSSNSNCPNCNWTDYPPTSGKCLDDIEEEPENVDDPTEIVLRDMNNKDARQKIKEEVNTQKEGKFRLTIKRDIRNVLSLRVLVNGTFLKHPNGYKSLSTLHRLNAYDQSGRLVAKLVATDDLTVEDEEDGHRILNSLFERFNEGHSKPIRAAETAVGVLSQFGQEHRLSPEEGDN
UniProt O75643: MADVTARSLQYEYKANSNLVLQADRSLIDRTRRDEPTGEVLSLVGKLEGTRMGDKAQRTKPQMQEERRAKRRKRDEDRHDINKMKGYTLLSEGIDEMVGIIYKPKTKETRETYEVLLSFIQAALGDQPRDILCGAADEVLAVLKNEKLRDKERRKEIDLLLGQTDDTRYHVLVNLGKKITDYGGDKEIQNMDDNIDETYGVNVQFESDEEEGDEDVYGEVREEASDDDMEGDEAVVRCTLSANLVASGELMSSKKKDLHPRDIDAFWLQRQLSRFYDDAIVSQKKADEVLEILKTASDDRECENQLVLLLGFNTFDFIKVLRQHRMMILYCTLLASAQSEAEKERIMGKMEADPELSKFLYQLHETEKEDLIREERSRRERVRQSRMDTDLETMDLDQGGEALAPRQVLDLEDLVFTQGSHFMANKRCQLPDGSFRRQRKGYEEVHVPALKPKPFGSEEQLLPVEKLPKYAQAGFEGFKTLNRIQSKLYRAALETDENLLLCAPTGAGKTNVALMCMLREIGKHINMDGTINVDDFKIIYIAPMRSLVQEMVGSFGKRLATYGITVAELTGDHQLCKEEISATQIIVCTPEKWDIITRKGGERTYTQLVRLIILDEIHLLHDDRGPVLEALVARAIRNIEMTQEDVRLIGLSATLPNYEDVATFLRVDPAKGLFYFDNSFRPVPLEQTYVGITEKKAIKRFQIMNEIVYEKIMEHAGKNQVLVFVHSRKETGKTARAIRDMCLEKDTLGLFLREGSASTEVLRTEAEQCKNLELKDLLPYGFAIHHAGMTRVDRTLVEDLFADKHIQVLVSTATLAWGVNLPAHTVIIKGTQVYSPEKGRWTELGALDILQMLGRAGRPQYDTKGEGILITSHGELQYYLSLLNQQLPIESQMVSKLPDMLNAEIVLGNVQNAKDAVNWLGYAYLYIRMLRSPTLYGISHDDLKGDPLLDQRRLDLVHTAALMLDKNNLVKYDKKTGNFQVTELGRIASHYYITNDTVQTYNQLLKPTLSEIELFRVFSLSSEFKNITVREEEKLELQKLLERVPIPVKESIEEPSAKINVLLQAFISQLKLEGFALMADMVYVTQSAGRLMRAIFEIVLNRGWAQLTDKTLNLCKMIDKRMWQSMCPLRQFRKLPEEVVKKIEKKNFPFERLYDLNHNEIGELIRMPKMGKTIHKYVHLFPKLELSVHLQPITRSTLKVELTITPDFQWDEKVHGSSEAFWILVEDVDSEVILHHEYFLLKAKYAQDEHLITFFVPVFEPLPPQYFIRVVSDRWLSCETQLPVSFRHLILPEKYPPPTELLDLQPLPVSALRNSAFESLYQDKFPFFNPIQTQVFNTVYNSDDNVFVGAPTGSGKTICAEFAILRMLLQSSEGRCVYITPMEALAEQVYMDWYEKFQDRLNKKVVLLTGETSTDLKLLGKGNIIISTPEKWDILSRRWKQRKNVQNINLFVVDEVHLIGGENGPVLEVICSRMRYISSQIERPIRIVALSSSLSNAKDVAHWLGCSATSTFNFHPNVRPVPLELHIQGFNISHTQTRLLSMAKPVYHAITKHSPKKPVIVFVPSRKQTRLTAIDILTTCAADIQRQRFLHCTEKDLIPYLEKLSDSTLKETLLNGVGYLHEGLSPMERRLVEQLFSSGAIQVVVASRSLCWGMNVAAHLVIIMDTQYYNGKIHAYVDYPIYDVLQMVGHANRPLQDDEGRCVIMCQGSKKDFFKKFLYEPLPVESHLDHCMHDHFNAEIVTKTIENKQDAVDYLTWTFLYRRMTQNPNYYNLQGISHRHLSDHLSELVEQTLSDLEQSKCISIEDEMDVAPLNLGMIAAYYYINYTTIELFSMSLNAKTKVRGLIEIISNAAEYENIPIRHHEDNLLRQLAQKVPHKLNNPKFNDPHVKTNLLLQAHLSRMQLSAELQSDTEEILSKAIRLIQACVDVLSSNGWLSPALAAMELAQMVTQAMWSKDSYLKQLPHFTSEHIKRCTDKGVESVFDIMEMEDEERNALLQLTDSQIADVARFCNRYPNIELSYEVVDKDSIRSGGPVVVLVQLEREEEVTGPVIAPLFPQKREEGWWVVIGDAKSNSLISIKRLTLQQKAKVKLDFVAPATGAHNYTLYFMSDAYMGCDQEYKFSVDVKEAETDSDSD

Read-outs that look alike come from different tables or passages of the source. Results are given in words; binding and its absence hold for the method and conditions named. In cells and extracts the contact can be indirect. Here binding means that the protein was enriched with, or labelled near, the bait; the list need not be complete.

In experiment [1] the target is N-terminal V5-tagged FLUBV NS1 protein (strain B/Yamagata/1/73) (influenza B virus (strain B/Yamagata/1/73)) (UniProt P08013). As to the kind of experiment: affinity purification with mass spectrometry.
Experiment [2] has the same target. As to the kind of experiment: affinity purification with mass spectrometry. The source holds these as a separate data set.

Turning to SNRNP200 (from UniProt O75643 1-2136), in experiment [1], the binding entry is “binds”.

B1: ILF3 (protein, UniProt Q12906 1-894)
chain: MRPMRIFVNDDRHVMAKHSSVYPTQEELEAVQNMVSHTERALKAVSDWIDEQEKGSSEQAESDNMDVPPEDDSKEGAGEQKTEHMTRTLRGVMRVGLVAKGLLLKGDLDLELVLLCKEKPTTALLDKVADNLAIQLAAVTEDKYEILQSVDDAAIVIKNTKEPPLSLTIHLTSPVVREEMEKVLAGETLSVNDPPDVLDRQKCLAALASLRHAKWFQARANGLKSCVIVIRVLRDLCTRVPTWGPLRGWPLELLCEKSIGTANRPMGAGEALRRVLECLASGIVMPDGSGIYDPCEKEATDAIGHLDRQQREDITQSAQHALRLAAFGQLHKVLGMDPLPSKMPKKPKNENPVDYTVQIPPSTTYAITPMKRPMEEDGEEKSPSKKKKKIQKKEEKAEPPQAMNALMRLNQLKPGLQYKLVSQTGPVHAPIFTMSVEVDGNSFEASGPSKKTAKLHVAVKVLQDMGLPTGAEGRDSSKGEDSAEETEAKPAVVAPAPVVEAVSTPSAAFPSDATAEQGPILTKHGKNPVMELNEKRRGLKYELISETGGSHDKRFVMEVEVDGQKFQGAGSNKKVAKAYAALAALEKLFPDTPLALDANKKKRAPVPVRGGPKFAAKPHNPGFGMGGPMHNEVPPPPNLRGRGRGGSIRGRGRGRGFGGANHGGYMNAGAGYGSYGYGGNSATAGYSQFYSNGGHSGNASGGGGGGGGGSSGYGSYYQGDNYNSPVPPKHAGKKQPHGGQQKPSYGSGYQSHQGQQQSYNQSPYSNYGPPQGKQKGYNHGQGSYSYSNSYNSPGGGGGSDYNYESKFNYSGSGGRSGGNSYGSGGASYNPGSHGGYGGGSGGGSSYQGKQGGYSQSNYNSPGSGQNYSGPPSSYQSSQGGYGRNADHSMNYQYR
On to B1, for which, in experiment [2], the binding result is on record as “binds”.
